Results deposited as PubChem BioAssay AID1259254 (NCATS, 2017)
Shown is an unselected part of about 59,000 reagents. About 1,550 of all reagents (2.6%) were called active. 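G2 share is only a proxy for re-replication; each gene was hit by three separate siRNAs, and active genes were retested.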 The raw values are shown without normalisation. Reagents against one gene are numbered here. Reagent sequences are not shown. Not stated in the record: the amount of reagent.

Purpose: 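Genome-wide screen for genes that prevent DNA re-replication in cancer cells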 (primary screen)
Cell system: human HCT116 colorectal cancer cells
Reagents: single siRNA against human genes
Time to read-out: 3 days
Detection: 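Imaged Hoechst DNA stain sorts each cell into a cycle phase by DNA amount; per plate, G2 fraction set to 0% for non-targeting and 100% for GMNN siRNA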
Scale: G2 robust z-score and G2 cells, % of GMNN control: higher = more G2 cells, more excess DNA replication; raw share of cells in G2: higher = larger share of cells with G2 DNA content
Hit rule: 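Active siRNAs have a G2 robust z of 5 or more median absolute deviations over the median, which in these data means about 38% or higher of GMNN control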

gene | reagent | G2 robust z-score | G2 cells, % of GMNN control | raw share of cells in G2 (%) | Call
DNAH10 (dynein axonemal heavy chain 10) | 1 | 1.42 | 12.9 | 6.85 | inactive
DNAH10 (dynein axonemal heavy chain 10) | 2 | 1.62 | 14.4 | 8.76 | inactive
DNAH10 (dynein axonemal heavy chain 10) | 3 | -0.346 | 0.531 | 3.14 | inactive
TMX4 (thioredoxin related transmembrane protein 4) | 1 | -0.0977 | 2.28 | 7.43 | inactive
TMX4 (thioredoxin related transmembrane protein 4) | 2 | -0.174 | 1.74 | 5.06 | inactive
TMX4 (thioredoxin related transmembrane protein 4) | 3 | -0.218 | 1.43 | 4.95 | inactive
ANXA13 (annexin A13) | 1 | 2.93 | 23.6 | 12.7 | inactive
ANXA13 (annexin A13) | 2 | 0.00235 | 2.98 | 5.1 | inactive
ANXA13 (annexin A13) | 3 | 1.1 | 10.7 | 8.88 | inactive
BHMT2 (betaine--homocysteine S-methyltransferase 2) | 1 | 1.56 | 14 | 8.56 | inactive
BHMT2 (betaine--homocysteine S-methyltransferase 2) | 2 | 0.885 | 9.19 | 10.3 | inactive
BHMT2 (betaine--homocysteine S-methyltransferase 2) | 3 | -0.438 | -0.113 | 4.15 | inactive

In a second layout: 3 of the entries above.
gene	reagent	G2 robust z-score	G2 cells, % of GMNN control	raw share of cells in G2 (%)	Call
ANXA13 (annexin A13)	2	0.00235	2.98	5.1	inactive
ANXA13 (annexin A13)	3	1.1	10.7	8.88	inactive
BHMT2 (betaine--homocysteine S-methyltransferase 2)	1	1.56	14	8.56	inactive

Next records:
gene | reagent | G2 robust z-score | G2 cells, % of GMNN control | raw share of cells in G2 (%) | Call
BLK (BLK proto-oncogene, Src family tyrosine kinase) | 1 | 0.132 | 3.89 | 6.89 | inactive
BLK (BLK proto-oncogene, Src family tyrosine kinase) | 2 | -0.374 | 0.333 | 5.52 | inactive
BLK (BLK proto-oncogene, Src family tyrosine kinase) | 3 | -0.199 | 1.57 | 4.58 | inactive
H2AC12 (H2A clustered histone 12) | 1 | -0.493 | -0.501 | 2.84 | inactive
H2AC12 (H2A clustered histone 12) | 2 | 1.53 | 13.7 | 7.28 | inactive
H2AC12 (H2A clustered histone 12) | 3 | 1.42 | 13 | 9.6 | inactive
EMC4 (ER membrane protein complex subunit 4) | 1 | -0.691 | -1.89 | 3.13 | inactive
EMC4 (ER membrane protein complex subunit 4) | 2 | -0.142 | 1.97 | 5.29 | inactive
EMC4 (ER membrane protein complex subunit 4) | 3 | 3.7 | 29 | 12.4 | inactive
LGALS9 (galectin 9) | 1 | 0.176 | 4.2 | 4.87 | inactive
LGALS9 (galectin 9) | 2 | 0.339 | 5.35 | 7.25 | inactive
LGALS9 (galectin 9) | 3 | -0.167 | 1.8 | 4.93 | inactive
ZNF135 (zinc finger protein 135) | 1 | -0.885 | -3.26 | 2.44 | inactive
ZNF135 (zinc finger protein 135) | 2 | -0.758 | -2.37 | 4.93 | inactive
ZNF135 (zinc finger protein 135) | 3 | -0.402 | 0.142 | 3.4 | inactive
TMEM205 (transmembrane protein 205) | 1 | -0.658 | -1.66 | 3.41 | inactive
TMEM205 (transmembrane protein 205) | 2 | -0.14 | 1.98 | 4.13 | inactive
TMEM205 (transmembrane protein 205) | 3 | 0.105 | 3.7 | 5.68 | inactive
